{"source": "patent US20260091027A1", "about": "“STILBENE DERIVATIVES AS WELL AS PREPARATION METHOD THEREFOR AND USE THEREOF” (THEDERMA SHANGHAI CO., LTD., priority 2022, published 2026)", "note": "Some results were stated once for a whole list of compounds, not compound by compound."}
{"target": "T1, AHR protein (Homo sapiens, UniProt P35869)", "T1 construct": "Human hepatoma cells HepG2-Lucia expressing AHR and luciferase; host or cells: HepG2-Lucia AHR (human hepatoma)", "T1 sequence (P35869 11-848)": "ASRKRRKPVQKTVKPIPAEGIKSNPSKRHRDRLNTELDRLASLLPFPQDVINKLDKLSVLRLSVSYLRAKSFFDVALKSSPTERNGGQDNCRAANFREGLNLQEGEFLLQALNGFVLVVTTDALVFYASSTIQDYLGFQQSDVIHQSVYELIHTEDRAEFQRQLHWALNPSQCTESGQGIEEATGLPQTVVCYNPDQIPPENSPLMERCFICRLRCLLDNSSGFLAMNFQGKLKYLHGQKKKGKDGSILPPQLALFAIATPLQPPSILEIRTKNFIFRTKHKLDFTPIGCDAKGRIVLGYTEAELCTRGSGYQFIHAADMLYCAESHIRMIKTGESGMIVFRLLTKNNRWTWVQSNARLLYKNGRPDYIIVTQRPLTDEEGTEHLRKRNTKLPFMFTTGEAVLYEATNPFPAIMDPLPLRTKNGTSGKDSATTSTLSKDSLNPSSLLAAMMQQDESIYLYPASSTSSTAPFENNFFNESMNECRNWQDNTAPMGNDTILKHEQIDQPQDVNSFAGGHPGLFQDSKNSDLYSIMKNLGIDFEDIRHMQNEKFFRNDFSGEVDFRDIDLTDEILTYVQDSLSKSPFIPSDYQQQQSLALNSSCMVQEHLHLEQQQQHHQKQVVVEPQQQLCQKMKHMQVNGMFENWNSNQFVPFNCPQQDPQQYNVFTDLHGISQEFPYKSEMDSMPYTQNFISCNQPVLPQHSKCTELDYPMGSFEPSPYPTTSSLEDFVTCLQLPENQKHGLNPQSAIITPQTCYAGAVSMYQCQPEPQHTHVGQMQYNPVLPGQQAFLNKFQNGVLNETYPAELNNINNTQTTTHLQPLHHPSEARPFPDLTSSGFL", "experiment": "Luciferase reporter gene assay (AHR agonistic activity)", "type": "cell-based", "conditions": "HepG2-Lucia AHR cells"}
{"compound": "CC(C)c1c(O)cc(/C=C/c2ncccc2F)c(F)c1O", "note": "[Compound 7, (E)-4-Fluoro-5-[2-(3-fluoropyridin-2-yl)vinyl]-2-isopropylbenzene-1,3-diol]", "activation activity on AHR protein (in words, compared with Benvitimod)": "remarkably superior to that of Benvitimod"}
{"compound": "CC(C)c1c(O)cc(/C=C/c2ccccc2F)c(F)c1O", "note": "[Compound 6, (E)-4-Fluoro-5-(2-fluorostyryl)-2-isopropylbenzene-1,3-diol]", "activation activity on AHR protein (in words, compared with Benvitimod)": "remarkably superior to that of Benvitimod"}
{"compound": "CC(C)c1c(O)cc(/C=C/c2cccc(F)n2)c(F)c1O", "note": "[Compound 14, (E)-4-Fluoro-5-[2-(6-fluoropyridin-2-yl)vinyl]-2-isopropylbenzene-1,3-diol]", "activation activity on AHR protein (in words, compared with Benvitimod)": "remarkably superior to that of Benvitimod"}
{"compound": "CC(C)c1c(O)cc(/C=C/c2ccc(F)cn2)c(F)c1O", "note": "[Compound 9, (E)-4-Fluoro-5-[2-(5-fluoropyridin-2-yl)vinyl]-2-isopropylbenzene-1,3-diol]", "activation activity on AHR protein (in words, compared with Benvitimod)": "remarkably superior to that of Benvitimod"}
{"compound": "CC(C)c1c(O)cc(/C=C/c2ccc(F)cc2)c(F)c1O", "note": "[Compound 5, (E)-4-Fluoro-5-(4-fluorostyryl)-2-isopropylbenzene-1,3-diol]", "activation activity on AHR protein (in words, compared with Benvitimod)": "remarkably superior to that of Benvitimod"}
{"compound": "CC(C)c1c(O)cc(/C=C/c2ncccc2Cl)c(F)c1O", "note": "[Compound 8, (E)-5-[2-(3-Chloropyridin-2-yl)vinyl]-4-fluoro-2-isopropylbenzene-1,3-diol]", "activation activity on AHR protein (in words, compared with Benvitimod)": "remarkably superior to that of Benvitimod"}
